Reference: PubChem BioAssay AID1259254 (NCATS, 2017)
Test: 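Gene knock-downs that lead to re-replication, shown by excess G2 DNA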 (primary screen). Cell system: human HCT116 colorectal cancer cells. Knock-down reagent: single siRNA against human genes. Duration: 3 days. Measured: 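Nuclei stained with Hoechst and imaged; cell-cycle phase assigned by DNA content; G2 share scaled per plate, non-targeting siRNA 0%, GMNN siRNA 100%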. Reading the numbers: G2 robust z-score and G2 cells, % of GMNN control: higher = more G2 cells, more excess DNA replication. Active means: 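Active siRNAs have a G2 robust z of 5 or more median absolute deviations over the median, which in these data means about 38% or higher of GMNN control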.
The deposit covers about 59,000 reagents; below is an unselected part. About 1,550 of all reagents (2.6%) were called active. 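G2 share is only a proxy for re-replication; each gene was hit by three separate siRNAs, and active genes were retested.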 Further read-outs or replicates are left out here. Not stated in the record: the amount of reagent.

gene knocked down	PubChem SID	G2 robust z-score	G2 cells, % of GMNN control	outcome
OTUD6B (GeneID 51633)	SID160733516	1.41	12.9	inactive
OTUD6B (GeneID 51633)	SID160733517	-0.492	-0.491	inactive
OTUD6B (GeneID 51633)	SID160741119	-0.718	-2.08	inactive
CD163 (GeneID 9332)	SID160721966	-0.984	-3.95	inactive
CD163 (GeneID 9332)	SID160721967	2.09	17.7	inactive
CD163 (GeneID 9332)	SID160721969	0.495	6.45	inactive
TMEM220 (GeneID 388335)	SID160765825	-0.107	2.21	inactive
TMEM220 (GeneID 388335)	SID160765826	-0.197	1.58	inactive
TMEM220 (GeneID 388335)	SID160765827	-0.91	-3.43	inactive
ANKRD34B (GeneID 340120)	SID160764368	3.48	27.4	inactive
ANKRD34B (GeneID 340120)	SID160764369	-0.702	-1.97	inactive
ANKRD34B (GeneID 340120)	SID160764370	3.63	28.5	inactive
ARHGEF15 (GeneID 22899)	SID160732976	1.79	15.6	inactive
ARHGEF15 (GeneID 22899)	SID160732985	0.687	7.8	inactive
ARHGEF15 (GeneID 22899)	SID160732994	1.54	13.8	inactive
WDR18 (GeneID 57418)	SID160745964	3.05	24.5	inactive
WDR18 (GeneID 57418)	SID160745965	-0.363	0.416	inactive
WDR18 (GeneID 57418)	SID160745966	3.12	24.9	inactive

Next part; the last 6 above are carried over.
gene knocked down	PubChem SID	G2 robust z-score	G2 cells, % of GMNN control	outcome
ARHGEF15 (GeneID 22899)	SID160732976	1.79	15.6	inactive
ARHGEF15 (GeneID 22899)	SID160732985	0.687	7.8	inactive
ARHGEF15 (GeneID 22899)	SID160732994	1.54	13.8	inactive
WDR18 (GeneID 57418)	SID160745964	3.05	24.5	inactive
WDR18 (GeneID 57418)	SID160745965	-0.363	0.416	inactive
WDR18 (GeneID 57418)	SID160745966	3.12	24.9	inactive
HNRNPH3 (GeneID 3189)	SID160733061	-0.157	1.86	inactive
HNRNPH3 (GeneID 3189)	SID160775138	1.27	11.9	inactive
HNRNPH3 (GeneID 3189)	SID160775139	-0.466	-0.308	inactive
CLIP3 (GeneID 25999)	SID160737419	-0.471	-0.349	inactive
CLIP3 (GeneID 25999)	SID160737420	0.572	6.99	inactive
CLIP3 (GeneID 25999)	SID160737421	1.53	13.7	inactive
SMAD3 (GeneID 4088)	SID160776856	0.977	9.84	inactive
SMAD3 (GeneID 4088)	SID160776857	1.14	11	inactive
SMAD3 (GeneID 4088)	SID160776858	0.862	9.03	inactive
ERGIC3 (GeneID 51614)	SID160741095	0.857	9	inactive
ERGIC3 (GeneID 51614)	SID160741096	0.829	8.8	inactive
ERGIC3 (GeneID 51614)	SID160741097	-0.683	-1.84	inactive
LYPD6 (GeneID 130574)	SID160732468	-0.675	-1.78	inactive
LYPD6 (GeneID 130574)	SID160732469	0.669	7.67	inactive
LYPD6 (GeneID 130574)	SID160756977	-0.484	-0.437	inactive
ZNF254 (GeneID 9534)	SID160722439	1.36	12.5	inactive
ZNF254 (GeneID 9534)	SID160722442	-0.154	1.88	inactive
ZNF254 (GeneID 9534)	SID160722443	-1.1	-4.78	inactive
CHAF1A (GeneID 10036)	SID160724218	1.86	16	inactive
CHAF1A (GeneID 10036)	SID160724228	-0.275	1.03	inactive
CHAF1A (GeneID 10036)	SID160724235	0.547	6.82	inactive
IFNWP2 (GeneID 646581)	SID160725951	2.84	23	inactive
IFNWP2 (GeneID 646581)	SID160725952	1.42	12.9	inactive
IFNWP2 (GeneID 646581)	SID160725953	-0.653	-1.63	inactive
OTUB1 (GeneID 55611)	SID160743894	2.72	22.1	inactive
OTUB1 (GeneID 55611)	SID160743895	-1.07	-4.55	inactive
OTUB1 (GeneID 55611)	SID160743896	-0.522	-0.702	inactive
METTL26 (GeneID 84326)	SID160724614	0.396	5.75	inactive
METTL26 (GeneID 84326)	SID160735094	-0.826	-2.84	inactive
METTL26 (GeneID 84326)	SID160735095	-0.224	1.39	inactive
